Taken from: PubChem BioAssay AID652259 (Drosophila RNAi Screening Center, 2013)
The deposit covers about 22,000 reagents; shown is an unselected part of those with a known target gene and a result. Over the whole deposit, 233 (1.1%) were called active. 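Light values are raw, unnormalised plate reads; the ratio scores behind the reporter calls were not deposited.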 Unmarked entries are inactive. Names joined by + are all predicted targets of the reagent. No sequences are given here. Not given: the amount of reagent, the time to read-out, the dose of the treatment.

Aim: 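Identify new Wingless signalling regulators in fly cells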 (primary screen)
Cell system: Drosophila clone 8 imaginal disc epithelial cells
Reagent: long dsRNA against Drosophila genes
Treatment: pathway stimulated by co-transfected Wingless expression plasmid
Measurement: 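Firefly luciferase from a tcf-site Wingless reporter, measured alongside co-transfected Renilla luciferase that tracks transfection; pathway stimulated by a Wingless plasmid; the firefly-to-Renilla ratio is not deposited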
Direction: firefly reporter light: higher = more Wg reporter light, before normalisation; Renilla control light: higher = more transfected or surviving cells
Call rule: 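a knock-down is a candidate when at least two out of four statistical tests show it departing from its plate mean; one test alone signals a weak candidate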
Calls: active = candidate regulator (raises or lowers reporter); inactive = not a candidate

no.	predicted target	DRSC id	reporter change call, replicate 1	firefly reporter light, replicate 1	firefly reporter light, replicate 2	Renilla control light, replicate 1	Renilla control light, replicate 2
1	Hex-A (GeneID 45875)	DRSC18259		16065		8327	
2	CG10338 (GeneID 35124)	DRSC02039		2966	4684	361	2592
3	ref(2)P (GeneID 35246)	DRSC03601		1557	6195	652	2565
4	CG8778 (GeneID 36392)	DRSC07264		4912		1537	
5	CG11191 (GeneID 35765)	DRSC06056		7544		3334	
6	dnt (GeneID 35207)	DRSC03522		5893		2592	
7	CG2121 (GeneID 35814)	DRSC06819		11702		3100	
8	CG2121 (GeneID 35814)	DRSC06820		3929	12556	994	3685
9	CG7365 (GeneID 40200)	DRSC10824		7888		2115	
10	Dlip2 (GeneID 40579)	DRSC12346		20593		6801	
11	Lcp65Ab2 + Lcp65Ab1	DRSC10340		1409	9398	1113	3299
12	Lcp65Ab2 + Lcp65Ab1	DRSC10343		1280	10742	907	3168
13	Pepck2 (GeneID 37130)	DRSC06013		5818		2603	
14	ATP8 (retired record) (GeneID 192468)	DRSC21277		21128		11904	
15	zf30C (GeneID 34292)	DRSC03641		11248		3350	
16	esg (GeneID 34903)	DRSC03530		2865	7771	1649	3841
17	PPP4R2r (GeneID 31979)	DRSC18695		32604		15306	
18	PPP4R2r (GeneID 31979)	DRSC21503		8.11e5	8.52e5	4.44e5	3.89e5
19	ZnT77C (GeneID 40271)	DRSC11766		14117		5041	
20	ZnT77C (GeneID 40271)	DRSC11767		14023		5123	
21	CG14212 (GeneID 32964)	DRSC19568		13830		8869	
22	CG5521 (GeneID 43242)	DRSC15828		7659		2424	
23	CG43980 (GeneID 2768995)	DRSC11500		3417		896	
24	CG43980 (GeneID 2768995)	DRSC11646		20540		8060	
25	CG43980 (GeneID 2768995)	DRSC22923		4.54e5	5.68e5	1.82e5	86014
26	HP6 (GeneID 33661)	DRSC00471		1555	5517	787	1881
27	glec (GeneID 42571)	DRSC16958		34695		5496	
28	asRNA:CR43477 + CG12256	DRSC14484		11488		3233	
29	sosie (GeneID 42961)	DRSC14636		27056		22309	
30	sosie (GeneID 42961)	DRSC21382		7.20e5	7.05e5	4.34e5	3.54e5
31	CG5381 (GeneID 34389)	DRSC02852		2135	8893	1116	4005
32	Rpt6R (GeneID 43635)	DRSC15431		7588		3977	
33	Cpsf5 (GeneID 39083)	DRSC10374		4464		2064	
34	Traf-like (GeneID 32611)	DRSC19894		3121	7473	1307	2428
35	Obp50c + Obp50b	DRSC05482		16752		13869	
36	CG17994 (GeneID 35550)	DRSC04877		3148	10077	1223	2816
37	PI31 (GeneID 36277)	DRSC07306		10848		3341	
38	dsh (GeneID 32078)	DRSC19803	Wg reporter activity lowered	13754		8228	
39	naz (GeneID 42204)	DRSC14790		19008		4308	
40	naz (GeneID 42204)	DRSC16199		14884		3798	
41	Kaz1-ORFB (GeneID 3772691)	DRSC08669	Wg reporter activity raised	4592		2144	
42	Dcr-2 (GeneID 36993)	DRSC06992	Wg reporter activity raised	9456		4298	

Entries above whose target name begins with L or l (2):
predicted target	DRSC id	reporter change call, replicate 1	firefly reporter light, replicate 1	firefly reporter light, replicate 2	Renilla control light, replicate 1	Renilla control light, replicate 2
Lcp65Ab2 + Lcp65Ab1	DRSC10340		1409	9398	1113	3299
Lcp65Ab2 + Lcp65Ab1	DRSC10343		1280	10742	907	3168

The listing continues:
no.	predicted target	DRSC id	reporter change call, replicate 1	firefly reporter light, replicate 1	firefly reporter light, replicate 2	Renilla control light, replicate 1	Renilla control light, replicate 2
43	Ak2 (GeneID 37834)	DRSC04043		1962	8938	629	2667
44	rasp (GeneID 44098)	DRSC08191		5185		2385	
45	Mcm7 (GeneID 39014)	DRSC11219		1914		983	
46	CG1789 (GeneID 31812)	DRSC18140		1665	6066	920	1955
47	Nipped-A (GeneID 35483)	DRSC04882		26281		6818	
48	Nipped-A (GeneID 35483)	DRSC04883		3723	14236	482	3744
49	Nipped-A (GeneID 35483)	DRSC04884		2672	9179	566	1796
50	Nipped-A (GeneID 35483)	DRSC07738		7827		2313	
51	Nipped-A (GeneID 35483)	DRSC22386		7.04e5	6.61e5	2.71e5	2.52e5
52	CG32204 (GeneID 317913)	DRSC09574		2112		599	
53	modSP (GeneID 42032)	DRSC16726		24448		6740	
54	modSP (GeneID 42032)	DRSC16857		10235		2659	
55	modSP (GeneID 42032)	DRSC21489		4.85e5	4.73e5	3.66e5	2.23e5
56	AttB (GeneID 36637)	DRSC06734		5029		2136	
57	CG9008 (GeneID 34779)	DRSC01889		6451		3649	
58	CG3342 (GeneID 31586)	DRSC18304		2586	5226	752	1973
59	Cchl (GeneID 42590)	DRSC15949		1922	5416	864	1573
60	t-Grip128 (GeneID 317930)	DRSC07853		4102		1922	
61	Nepl3 (GeneID 326172)	DRSC02681		9424		3450	
62	CG14297 (GeneID 42260)	DRSC14776		9955		1404	
63	CG9014 (GeneID 34777)	DRSC01979		3021	9850	1537	4674
64	klar (GeneID 38067)	DRSC08718		19472		6902	
65	klar (GeneID 38067)	DRSC22393		6.39e5	6.52e5	2.50e5	2.43e5
66	Akr1B (GeneID 39304)	DRSC10581		4547		2258	
67	Obp99c (GeneID 43494)	DRSC16262		6432		3112	
68	lace (GeneID 34910)	DRSC03564		8896		2851	
69	Tbh (GeneID 31718)	DRSC18723		19173		8320	
70	DIP-gamma (GeneID 43417)	DRSC14873		3570	7234	2198	1036
71	CG14339 (GeneID 33286)	DRSC00369		3249	7757	1042	2771
72	Nup75 (GeneID 37078)	DRSC06947		12652		3474	
73	mor (GeneID 41942)	DRSC15378		23881		3239	
74	Cog2 (GeneID 41870)	DRSC16987		21227		3820	
75	to (GeneID 43036)	DRSC17086		21382		18597	
76	CG8642 (GeneID 35845)	DRSC07228		3482	9623	1127	2723
77	Dhc16F (GeneID 32785)	DRSC20242		23040		8994	
78	TwdlH (GeneID 43208)	DRSC14735		9283		4800	
79	HisRS (GeneID 32841)	DRSC19986		23803		8139	
80	HmgZ (GeneID 37480)	DRSC03888		22339		11844	
81	HmgZ (GeneID 37480)	DRSC04620		2614	9216	832	3929
82	dgrn (GeneID 40725)	DRSC12154		5258		2487	
83	CG12123 (GeneID 31777)	DRSC17818		2465	3996	1179	1884
84	CG5418 (GeneID 34663)	DRSC02857		3123	8658	1648	4295
85	Ufc1 (GeneID 36762)	DRSC07156		11719		3729	
86	Acp32CD (GeneID 34531)	DRSC01858		3623	9474	730	3346
87	CG14089 (GeneID 40101)	DRSC10093		14953		4454	
88	Dgat2 (GeneID 35719)	DRSC06803		15220		4277	
89	Peritrophin-15b (GeneID 50432)	DRSC02266		2818	7152	656	3605
90	Rab7 (GeneID 42841)	DRSC16810		2707	6789	1125	2001
91	galla-1 (GeneID 246485)	DRSC05987		6546		3033	
92	CG17982 (GeneID 31739)	DRSC18143		15121		7216	
93	Mal-A8 (GeneID 35830)	DRSC07234		2761	6437	819	2935
